Results deposited as PubChem BioAssay AID1259308 (NCATS, 2017).

Purpose: 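Candidate targets for better recombinant protein yield in mammalian cells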 (primary screen)
System: human HEK293 embryonic kidney cells stably expressing firefly luciferase (HEK-CMV-Luc2-Hygro)
Reagent: single siRNA against human genes, 0.8 pmol siRNA per well
Duration: 72 h
Detection: 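Luciferase light (ONE-Glo) measured on one replicate plate set and viability (CellTiter-Glo) on the other, scaled to a negative control siRNA, with robust z-scores and luciferase per cell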
Direction: total luciferase, z-score: higher = more reporter protein produced
Rule for the call: 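An siRNA counts as active if its total luciferase robust z-score exceeds 3; genes with two or more such siRNAs out of three were retested with fresh siRNAs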
Calls: active = raised luciferase; inactive = no rise
Shown is an unselected part of about 59,000 reagents. About 1,510 of all reagents (2.6%) count as active. 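Calls use total luciferase alone and ignore viability, so some active siRNAs may act by altering cell number.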 A number with no mark means an inactive call. The numbers tell different reagents against one gene apart. Not all columns of the deposit are shown.

MED19 #1
- total luciferase, z-score: 0.925

MED19 #2
- total luciferase, z-score: -1.95

MED19 #3
- total luciferase, z-score: -0.121

OR4K2 #1
- total luciferase, z-score: 6.74 (active)

OR4K2 #2
- total luciferase, z-score: 0.256

OR4K2 #3
- total luciferase, z-score: -0.029

TK1 #1
- total luciferase, z-score: -0.509

TK1 #2
- total luciferase, z-score: 1.3

TK1 #3
- total luciferase, z-score: 1.42

RNPS1 #1
- total luciferase, z-score: -0.95

RNPS1 #2
- total luciferase, z-score: -0.555

RNPS1 #3
- total luciferase, z-score: 1.07

PLEKHG7 #1
- total luciferase, z-score: -1.73

PLEKHG7 #2
- total luciferase, z-score: -0.873

PLEKHG7 #3
- total luciferase, z-score: 0.736

PLEKHG7 #4
- total luciferase, z-score: 0.118

PLEKHG7 #5
- total luciferase, z-score: 0.967

PLEKHG7 #6
- total luciferase, z-score: 0.145

GALNT5 #1
- total luciferase, z-score: 1.26

GALNT5 #2
- total luciferase, z-score: -1.31

GALNT5 #3
- total luciferase, z-score: 0.765

Quoted from the listing (6 entries):
OR4K2 #2
- total luciferase, z-score: 0.256

OR4K2 #3
- total luciferase, z-score: -0.029

TK1 #1
- total luciferase, z-score: -0.509

TK1 #2
- total luciferase, z-score: 1.3

TK1 #3
- total luciferase, z-score: 1.42

RNPS1 #1
- total luciferase, z-score: -0.95

The list goes on:
CENPF #1
- total luciferase, z-score: 0.581

CENPF #2
- total luciferase, z-score: 1.13

CENPF #3
- total luciferase, z-score: 0.288

KIAA0513 #1
- total luciferase, z-score: 0.597

KIAA0513 #2
- total luciferase, z-score: 0.137

KIAA0513 #3
- total luciferase, z-score: -0.449

USP18 #1
- total luciferase, z-score: 1.03

USP18 #2
- total luciferase, z-score: 0.57

USP18 #3
- total luciferase, z-score: 0.461

GPR135 #1
- total luciferase, z-score: 2.11

GPR135 #2
- total luciferase, z-score: 0.349

GPR135 #3
- total luciferase, z-score: -0.522

DUSP16 #1
- total luciferase, z-score: 0.34

DUSP16 #2
- total luciferase, z-score: 0.521

DUSP16 #3
- total luciferase, z-score: -1.3

OR2AK2 #1
- total luciferase, z-score: -0.761

OR2AK2 #2
- total luciferase, z-score: -0.227

OR2AK2 #3
- total luciferase, z-score: -0.142

PCDHB7 #1
- total luciferase, z-score: -1.46

PCDHB7 #2
- total luciferase, z-score: -0.416

PCDHB7 #3
- total luciferase, z-score: -0.0865
